Consider one substance from patent US8415296B2 (Eli Lilly and Company, priority 2009, dated 2013).

This data set in a line: general procedure: Fmoc solid-phase peptide synthesis; Fmoc-Rink amide polystyrene resin (Rapp Polymere), approximately 0.7 mmol/g; DIC/HOBt. The settings on record: conjugation step, based on the amount of starting peptide.

“His-(D-Ser)-Gln-Gly-Thr-Phe-Thr-Ser-Asp-(1-Nal)-Ser-Lys-Tyr-Leu-Asp-Glu-Lys-Ala-Ala-Gln-Glu-Phe-Val-Gln-Trp-Leu-Leu-Asn-(Aib)-Ala-Arg-Asn-Arg-Asn-Asn-Ile-Ala-Cys(20 kDa PEG)-Cys(20 kDa PEG)” yielded a conjugation yield of 70 to 80%.
